In paper PMC4859800:
Where a chain is given by its changes, count along the chain named. Numbers in names are those of the source. These are yes or no findings as the source states them, for the method shown. For some of these results: In cells and extracts the contact can be indirect. Some binding calls cover weakened binding; strength is not graded here. For some of these results: Sequences can lack the tags named with a protein.

T1: 3xFLAG-Dbp10 (S. cerevisiae) (UniProt Q12389)
T1 sequence: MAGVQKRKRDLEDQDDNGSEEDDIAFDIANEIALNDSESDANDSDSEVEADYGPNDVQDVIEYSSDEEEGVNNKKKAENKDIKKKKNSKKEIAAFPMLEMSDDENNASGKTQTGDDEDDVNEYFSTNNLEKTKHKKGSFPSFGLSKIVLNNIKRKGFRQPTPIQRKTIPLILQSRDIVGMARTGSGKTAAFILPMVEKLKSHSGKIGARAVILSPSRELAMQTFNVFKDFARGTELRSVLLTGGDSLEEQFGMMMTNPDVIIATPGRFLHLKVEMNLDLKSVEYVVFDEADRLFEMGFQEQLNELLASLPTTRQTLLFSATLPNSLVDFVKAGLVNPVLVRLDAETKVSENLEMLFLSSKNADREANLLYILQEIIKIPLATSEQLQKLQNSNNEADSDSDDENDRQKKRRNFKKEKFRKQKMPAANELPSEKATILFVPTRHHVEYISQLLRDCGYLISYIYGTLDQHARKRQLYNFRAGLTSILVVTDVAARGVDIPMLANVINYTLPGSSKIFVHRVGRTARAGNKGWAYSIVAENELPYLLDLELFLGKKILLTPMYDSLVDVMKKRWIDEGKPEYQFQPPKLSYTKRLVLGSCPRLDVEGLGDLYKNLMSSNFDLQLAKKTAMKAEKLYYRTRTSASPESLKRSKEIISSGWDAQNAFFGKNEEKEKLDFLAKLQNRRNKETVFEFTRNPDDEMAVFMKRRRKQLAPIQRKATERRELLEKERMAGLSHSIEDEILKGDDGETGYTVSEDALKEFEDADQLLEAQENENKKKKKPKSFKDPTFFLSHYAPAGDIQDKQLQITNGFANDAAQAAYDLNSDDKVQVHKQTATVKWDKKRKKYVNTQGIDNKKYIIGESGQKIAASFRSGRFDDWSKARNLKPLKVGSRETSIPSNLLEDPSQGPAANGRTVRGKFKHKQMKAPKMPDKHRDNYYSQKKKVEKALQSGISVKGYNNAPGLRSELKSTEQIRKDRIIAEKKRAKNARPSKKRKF

T2: 3xFLAG-Mak5 (S. cerevisiae) (UniProt P38112)
T2 sequence: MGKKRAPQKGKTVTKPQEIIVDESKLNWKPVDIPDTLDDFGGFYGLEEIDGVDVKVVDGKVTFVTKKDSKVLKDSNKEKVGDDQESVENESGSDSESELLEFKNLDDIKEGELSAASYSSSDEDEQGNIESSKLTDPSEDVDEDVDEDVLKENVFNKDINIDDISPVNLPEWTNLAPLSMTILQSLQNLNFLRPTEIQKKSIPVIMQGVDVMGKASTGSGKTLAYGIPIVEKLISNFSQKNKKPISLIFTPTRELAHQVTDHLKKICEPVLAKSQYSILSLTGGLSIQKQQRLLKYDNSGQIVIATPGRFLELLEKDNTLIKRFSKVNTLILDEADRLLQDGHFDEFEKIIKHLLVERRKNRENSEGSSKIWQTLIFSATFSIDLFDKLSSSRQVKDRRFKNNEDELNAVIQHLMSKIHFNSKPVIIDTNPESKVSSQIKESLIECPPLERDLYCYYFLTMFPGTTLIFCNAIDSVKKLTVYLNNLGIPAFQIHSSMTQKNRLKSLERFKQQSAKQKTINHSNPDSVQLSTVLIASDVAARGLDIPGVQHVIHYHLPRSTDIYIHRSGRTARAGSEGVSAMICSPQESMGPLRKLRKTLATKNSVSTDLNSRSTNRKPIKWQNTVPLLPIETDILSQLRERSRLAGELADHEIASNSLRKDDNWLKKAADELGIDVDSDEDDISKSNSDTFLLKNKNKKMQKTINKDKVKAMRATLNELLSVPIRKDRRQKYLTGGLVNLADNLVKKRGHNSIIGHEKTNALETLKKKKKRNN

T3: 3xFLAG-Nop4 (S. cerevisiae) (UniProt P37838)
T3 sequence: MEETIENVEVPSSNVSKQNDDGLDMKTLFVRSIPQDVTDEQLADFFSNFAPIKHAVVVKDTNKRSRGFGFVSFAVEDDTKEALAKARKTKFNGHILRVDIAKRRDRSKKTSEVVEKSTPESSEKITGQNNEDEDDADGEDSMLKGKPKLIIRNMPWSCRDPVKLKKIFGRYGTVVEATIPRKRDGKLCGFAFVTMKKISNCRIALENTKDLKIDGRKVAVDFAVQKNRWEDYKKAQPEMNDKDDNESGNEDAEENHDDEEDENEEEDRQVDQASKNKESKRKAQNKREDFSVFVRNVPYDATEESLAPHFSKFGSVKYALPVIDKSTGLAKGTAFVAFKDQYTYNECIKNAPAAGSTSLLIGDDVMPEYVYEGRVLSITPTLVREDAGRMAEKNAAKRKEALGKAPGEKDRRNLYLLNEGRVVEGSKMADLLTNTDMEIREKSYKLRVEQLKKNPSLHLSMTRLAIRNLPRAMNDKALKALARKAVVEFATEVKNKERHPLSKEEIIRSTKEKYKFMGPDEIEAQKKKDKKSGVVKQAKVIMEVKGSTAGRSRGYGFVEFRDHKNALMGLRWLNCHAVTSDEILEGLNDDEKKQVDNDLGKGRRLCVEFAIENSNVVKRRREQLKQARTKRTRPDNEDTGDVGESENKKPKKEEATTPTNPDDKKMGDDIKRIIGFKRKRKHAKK

T4: 3xFLAG-Nsa2 (S. cerevisiae) (UniProt P40078)
T4 sequence: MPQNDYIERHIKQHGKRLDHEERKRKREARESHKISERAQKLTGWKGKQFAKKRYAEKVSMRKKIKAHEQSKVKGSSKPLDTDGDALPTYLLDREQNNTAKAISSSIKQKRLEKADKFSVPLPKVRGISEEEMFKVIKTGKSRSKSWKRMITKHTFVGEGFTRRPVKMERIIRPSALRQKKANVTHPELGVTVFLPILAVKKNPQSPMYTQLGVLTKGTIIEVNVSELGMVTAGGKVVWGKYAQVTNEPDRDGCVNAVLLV

T5: Dbp10 (Y2H bait, pAS2-1) (S. cerevisiae) (UniProt Q12389)
T5 sequence: T1 sequence

T6: Mak5 (Y2H bait, pAS2-1) (S. cerevisiae) (UniProt P38112)
T6 sequence: T2 sequence

T7: Nop4 (Y2H bait, pAS2-1) (S. cerevisiae) (UniProt P37838)
T7 sequence: T3 sequence

T8: Nsa2 (Y2H bait, pAS2-1) (S. cerevisiae) (UniProt P40078)
T8 sequence: T4 sequence

B1: 3xHA-Nop4 WT (protein, UniProt P37838 1-685)
chain: T3 sequence
B2: 3xHA-Nop4 L306P (protein, UniProt P37838 1-685)
chain: T3 sequence with L306P
B3: Nop4 WT (Y2H prey, pACT2) (protein, UniProt P37838 1-685)
chain: T3 sequence
B4: Nop4 L306P (Y2H prey, pACT2) (protein, UniProt P37838 1-685)
chain: T3 sequence with L306P

Tests used:
[1] = molecular target: T1, 3xFLAG-Dbp10 (S. cerevisiae); experiment: co-IP; yeast YPH499 co-expressing a 3xFLAG-tagged interacting protein and 3xHA-Nop4 WT or L306P; lysate in NET2 (20 mM Tris-HCl pH 7.5, 150 mM NaCl, 0.01% Nonidet P-40) on α-FLAG beads 1 hr at 4°C; α-HA western blot; HA to FLAG ratio
[2] = molecular target: T2, 3xFLAG-Mak5 (S. cerevisiae); experiment: as above
[3] = molecular target: T3, 3xFLAG-Nop4 (S. cerevisiae); experiment: as above
[4] = molecular target: T4, 3xFLAG-Nsa2 (S. cerevisiae); experiment: as above
[5] = molecular target: T5, Dbp10 (Y2H bait, pAS2-1) (S. cerevisiae); experiment: two-hybrid; directed Y2H; baits in pAS2-1 co-transformed with preys in pACT2 into PJ69-4α; serial dilutions on SD-Leu-Trp-His + 6 mM 3-AT, 30°C, 7 days
[6] = molecular target: T6, Mak5 (Y2H bait, pAS2-1) (S. cerevisiae); experiment: as above
[7] = molecular target: T7, Nop4 (Y2H bait, pAS2-1) (S. cerevisiae); experiment: as above
[8] = molecular target: T8, Nsa2 (Y2H bait, pAS2-1) (S. cerevisiae); experiment: as above

Row | Binder | binding [1] | binding [2] | binding [3] | binding [4] | binding [5] | binding [6] | binding [7] | binding [8]
1 | B1 | binds | binds | binds | binds | – | – | – | –
2 | B2 | binds | – | – | – | – | – | – | –
3 | B3 | – | – | – | – | binds | binds | binds | binds
4 | B4 | – | – | – | – | binds | no binding | no binding | no binding
